According to PubChem BioAssay AID342 (DTP/NCI, 2004):
The list is a part of this screen's results and no random one: its compounds were picked by chemical class. Not every dose and run of a compound is shown. T/C: endpoint of the treated group in % of that of the vehicle group. Some T/C values are marked as having no survivor count here; that says nothing about deaths at the dose. Schedule codes are those of the source, taken here to give the interval after Q, in days (D) or hours (H), and the number of doses after X. Some doses were run more than once; the results are listed from low to high. Some schedules carry Z or #; the key to these is not given.

Tested on: Swiss mice, Sarcoma 180 sc, mean tumor weight T/C
Assay: NCI In Vivo Anticancer Drug Screen. Data for tumor model Sarcoma 180 (subcutaneous) in Swiss mice
Details: T/C endpoint: mean tumor weight, evaluation day not shown, higher T/C = larger tumour
Protocol: The antitumor activity of compounds was measured in mice bearing transplantable tumors. Survival or tumor size were measured and the results are expressed as the measurement made in the treated group (T) divided by the measurement made in the vehicle treated control group (C). The tumor model used in this assay is Sarcoma 180 (subcutaneous) in Swiss mice

[1] = dose: 15.5 mg/kg/injection, schedule: Q#A X014 (ip), vehicle: methylcellulose (MC)

O=C(O)CCOc1cccc(N(CCCl)CCCl)c1
T/C [1]: 41 % of control [survivor count not shown]
T/C (dose: 15.5 mg/kg/injection, schedule: Q#A X014 (ip), vehicle: saline): 62 % of control [survivor count not shown]
T/C (dose: 23.5 mg/kg/injection, schedule: Q#A X014 (ip), vehicle: methylcellulose (MC)): 11 % of control [survivor count not shown]
T/C (dose: 23.5 mg/kg/injection, schedule: Q#A X014 (ip), vehicle: saline): 24 % of control [survivor count not shown]
T/C (dose: 35.0 mg/kg/injection, schedule: Q#A X014 (ip), vehicle: saline): 23 % of control [survivor count not shown]
T/C (dose: 52.5 mg/kg/injection, schedule: Q#A X014 (ip), vehicle: saline): 9 % of control [survivor count not shown]

CCCCOc1ccccc1N(CCCl)CCCl
T/C (dose: 6.8 mg/kg/injection, schedule: Q#A X014 (ip), vehicle: methylcellulose (MC)): 71 % of control [survivor count not shown]
T/C (dose: 10.4 mg/kg/injection, schedule: Q#A X014 (ip), vehicle: methylcellulose (MC)): 81 % of control [survivor count not shown]
T/C [1]: 75 % of control [survivor count not shown]
T/C (dose: 23.25 mg/kg/injection, schedule: Q#A X014 (ip), vehicle: methylcellulose (MC)): 74 % of control [survivor count not shown]

CC(C(=O)O)N(CCCl)CCCl (stereo unspecified)
T/C (dose: 0.61 mg/kg/injection, schedule: Q01DX007 (ip), vehicle: carboxymethylcellulose (CMC)): 99 % of control [survivor count not shown]
T/C (dose: 0.62 mg/kg/injection, schedule: Q#A X014 (ip), vehicle: distilled water + alcohol): 58 % of control [survivor count not shown]
T/C (dose: 1.0 mg/kg/injection, schedule: Q01DX007 (ip), vehicle: methylcellulose (MC)): 84 [survivor count not shown] and 90 % of control [survivor count not shown]
T/C (dose: 1.22 mg/kg/injection, schedule: Q01DX007 (ip), vehicle: carboxymethylcellulose (CMC)): 95 % of control [survivor count not shown]
T/C (dose: 1.25 mg/kg/injection, schedule: Q01DX005 (iv), vehicle: saline): 112 % of control [survivor count not shown]
T/C (dose: 1.25 mg/kg/injection, schedule: Q01DX007 (im), vehicle: saline): 99 % of control [survivor count not shown]
T/C (dose: 1.25 mg/kg/injection, schedule: Q01DX007 (ip), vehicle: saline): 95 % of control [survivor count not shown]
T/C (dose: 1.25 mg/kg/injection, schedule: Q01DX007 (sc), vehicle: saline): 113 % of control [survivor count not shown]
T/C (dose: 1.25 mg/kg/injection, schedule: Q#A X014 (ip), vehicle: distilled water + alcohol): 55 % of control [survivor count not shown]
T/C (dose: 1.5 mg/kg/injection, schedule: Q01DX007 (ip), vehicle: methylcellulose (MC)): 57 [survivor count not shown] and 81 % of control [survivor count not shown]
T/C (dose: 1.8 mg/kg/injection, schedule: Q01DX007 (ip), vehicle: carboxymethylcellulose (CMC)): 73 % of control [survivor count not shown]
T/C (dose: 2.0 mg/kg/injection, schedule: Q01DX007 (ip), vehicle: methylcellulose (MC)): 68 [survivor count not shown] and 82 % of control [survivor count not shown]
T/C (dose: 2.25 mg/kg/injection, schedule: Q01DX007 (ip), vehicle: carboxymethylcellulose (CMC)): 66 % of control [survivor count not shown]
T/C (dose: 2.45 mg/kg/injection, schedule: Q01DX007 (ip), vehicle: carboxymethylcellulose (CMC)): 84 % of control [survivor count not shown]
T/C (dose: 2.5 mg/kg/injection, schedule: Q01DX005 (iv), vehicle: saline): 63 % of control [survivor count not shown]
T/C (dose: 2.5 mg/kg/injection, schedule: Q01DX007 (im), vehicle: saline): 81 % of control [survivor count not shown]
T/C (dose: 2.5 mg/kg/injection, schedule: Q01DX007 (ip), vehicle: methylcellulose (MC)): 62 [survivor count not shown] and 72 % of control [survivor count not shown]
T/C (dose: 2.5 mg/kg/injection, schedule: Q01DX007 (ip), vehicle: saline): 63 % of control [survivor count not shown]
T/C (dose: 2.5 mg/kg/injection, schedule: Q01DX007 (sc), vehicle: saline): 68 % of control [survivor count not shown]
T/C (dose: 2.5 mg/kg/injection, schedule: Q#A X014 (ip), vehicle: distilled water + alcohol): 16 % of control [survivor count not shown]
T/C (dose: 3.0 mg/kg/injection, schedule: Q01DX007 (ip), vehicle: carboxymethylcellulose (CMC)): 82 % of control [survivor count not shown]
T/C (dose: 3.0 mg/kg/injection, schedule: Q01DX007 (ip), vehicle: methylcellulose (MC)): 35 [survivor count not shown] and 77 % of control [survivor count not shown]
T/C (dose: 3.5 mg/kg/injection, schedule: Q01DX007 (ip), vehicle: methylcellulose (MC)): 35 [survivor count not shown] and 40 % of control [survivor count not shown]
T/C (dose: 4.0 mg/kg/injection, schedule: Q01DX007 (ip), vehicle: methylcellulose (MC)): 17 [survivor count not shown] and 36 % of control [survivor count not shown]
T/C (dose: 4.5 mg/kg/injection, schedule: Q01DX007 (ip), vehicle: carboxymethylcellulose (CMC)): 33 % of control [survivor count not shown]
T/C (dose: 4.5 mg/kg/injection, schedule: Q01DX007 (ip), vehicle: methylcellulose (MC)): 18 [survivor count not shown] and 24 % of control [survivor count not shown]
T/C (dose: 4.9 mg/kg/injection, schedule: Q01DX007 (ip), vehicle: carboxymethylcellulose (CMC)): 39 % of control [survivor count not shown]
T/C (dose: 5.0 mg/kg/injection, schedule: Q01DX005 (iv), vehicle: saline): 25 % of control [survivor count not shown]
T/C (dose: 5.0 mg/kg/injection, schedule: Q01DX007 (im), vehicle: saline): 37 % of control [survivor count not shown]
T/C (dose: 5.0 mg/kg/injection, schedule: Q01DX007 (ip), vehicle: methylcellulose (MC)): 11 [survivor count not shown] and 30 % of control [survivor count not shown]
T/C (dose: 5.0 mg/kg/injection, schedule: Q01DX007 (ip), vehicle: saline): 43 % of control [survivor count not shown]
T/C (dose: 5.0 mg/kg/injection, schedule: Q01DX007 (oral), vehicle: saline): 57 % of control [survivor count not shown]
T/C (dose: 5.0 mg/kg/injection, schedule: Q01DX007 (sc), vehicle: saline): 65 % of control [survivor count not shown]
T/C (dose: 7.5 mg/kg/injection, schedule: Q01DX007 (im), vehicle: saline): 44 % of control [survivor count not shown]
T/C (dose: 7.5 mg/kg/injection, schedule: Q01DX007 (ip), vehicle: saline): 13 % of control [survivor count not shown]
T/C (dose: 10.0 mg/kg/injection, schedule: Q01DX007 (oral), vehicle: saline): 50 % of control [survivor count not shown]
T/C (dose: 20.0 mg/kg/injection, schedule: Q01DX007 (oral), vehicle: saline): 42 % of control [survivor count not shown]

O[C@@H](CNCCCl)[C@@H](O)CNCCCl
T/C (dose: 3.5 mg/kg/injection, schedule: Q#A X014 (ip), vehicle: saline): 68 % of control [survivor count not shown]
T/C (dose: 5.5 mg/kg/injection, schedule: Q#A X014 (ip), vehicle: saline): 50 % of control [survivor count not shown]
T/C (dose: 8.12 mg/kg/injection, schedule: Q#A X014 (ip), vehicle: saline): 43 % of control [survivor count not shown]
T/C (dose: 12.5 mg/kg/injection, schedule: Q#A X014 (ip), vehicle: saline): 34 % of control [survivor count not shown]
